The text below walks through data of article doi:10.1101/2020.06.24.169326.

No constants are given. Whether binding was seen depends on the method and setting. Binding can be weak; no strength is given. Tags and fused reporters may be left off the sequences shown.

Experiment [1] has as its target Deinococcus radiodurans topoisomerase IB fused to the T25 domain of CyaA (pKNTtopoIB) (Deinococcus radiodurans) (UniProt Q9RWH8). In words: two-hybrid.
The target in experiment [2] is Deinococcus radiodurans topoisomerase IB fused to the T18 domain of CyaA (pUTtopoIB) (Deinococcus radiodurans) (UniProt Q9RWH8). In words: two-hybrid.

B1: ParB2 with T18 tag, expressed in E. coli (protein, UniProt Q9RZE7 1-293)
chain: MTRRRPERRRDLLGLLGETPVDLSQANDIRALPVNELKVGSTQPRRSFDLERLSELAESIRAHGVLQPLLVRSVDGQYEIVAGERRWRAAQLAGLAEVPVVVRQLSNEQARAAALIENLQRDNLNVIDEVDGKLELIALTLGLEREEARKRLMQLLRAVPGDEHEQLDQVFRSMGETWRTFAKNKLRILNWPQPVLEALRAGLPLTLGSVVASAPPERQAELLKLAQNGASRSQLLQALQTPSQTSAVTPEHFAKVLSSKRFLSGLDTPTREALDRWLARMPERVRQAIDEQS
For the molecule B1, the binding entry in experiment [1] was “binds”.

B2: ParB1 with T18 tag, expressed in E. coli (protein, UniProt Q9RYD8 1-288)
chain: MSKKSSLGRGLDALLTKKGEPVAQAGTGTQVQTLKIERIAQAAYQPRQVFEPESLAELAQSIREKGVLQPLLVRPRGDAFEIVAGERRWRASQLAGLTELPVMIRDLGDREALEIAIVENLQREDLGPLEEARAYQALLDQGLNQEGVAQAVGKGRSTVTNALRLLTLPEPVLRALDEGSISASHARAVLTQPEADRLWAFEQIRSRGLNVREAEALKRERGGRDKGQGAPIKVNPPRAYRQLELDLSRRTGTRVKITGEDKGRVELNYGSREELDRILQILGYEAEE
For the molecule B2, in experiment [1], the binding result is given as “binds”.

B3: DNA replication initiation protein DnaA fused to the T25 domain of CyaA (pKNTDA) (protein, UniProt Q9RYE7 1-466)
chain: MSQEIWADVLAYVRKNVSDLEYTTWFAPVKPLGVQEGSLLLGVRNSFTKDWFRDHYLELLLAALRSLGAEHPQVEFQVLPAAQDALLLPNDPPPAPEAAAPTPKTKAAPTPPPSTPGDNRKTLNPKYTFENFVVGPNNNLAHAAALAVAESPGKAYNPLFIYGDVGLGKTHLMHAVGHYLAERFPEKRIEYVSTETFTNELINAIRDDKTTQFRNRYRSVDLLLVDDIQFLAGKERTQEEFFHTFNALYESNKQIILSSDRPPKDIQTLEGRLRSRFEWGLITDIQSPEYETRVAILKMNAEQGHITIPQEVLELIARQVTSNIRELEGALMRVVAFASLNNVPFSRAAAAKALSNVFAPQEAKVEMTDVLRQVAAHYGTTPDLIRGSGRARDIVVPRQVAQYLIRALTDHSLPEIGQFFGRDHSTVMHAVSKITEQMGKDPELAATVNTLRNRIQGKEEEEEVGA
Take B3: the binding entry in experiment [2] is “binds”.
